About 180 (8.6%) of roughly 2,100 compounds showed an effect of 50% or more. This is one part of the list.

This assay concerns MOLM1 and UCSD/AML1 (averaged). The experiment in a line: cell viability relative to DMSO control (POC); higher = less growth inhibition. The following applies: 1 µM; 72 h. The procedure: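 Primary viability screen in the 3q26 EVI1-high AML cell lines MOLM1 and UCSD/AML1 (1.5e3 cells/well, 384-well), compounds at 1 uM for 72 h. ATP CellTiter-Glo read-out given as percent of viable cells over DMSO control (POC), averaged over duplicates. DMSO was the negative control and 5 uM etoposide the positive control. This mapping covers the MicroSource Spectrum and Selleck anticancer libraries (drug names).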
As to `C=CCC1(C(C)CCC)C(=O)NC(=S)NC1=O` (stereo not given), the cell viability turned out to be 89.9%. For `CCCCCCCCCCCCCCCC[n+]1ccccc1` the value was 62.3%; for `c1ccc(/N=N/c2ccccc2)cc1`, 96.4%; for `O=C1CCCN1CC#CCN1CCCC1`, 107%. With `CC1=C2[C@H]3OC(=O)[C@@H](C)[C@@H]3CC[C@@]2(C)C=CC1=O`, the cell viability was found to be 109%.

Take `CCC(N)C(O)c1ccc(O)c(O)c1` (stereo not given): the cell viability came out at 93.3%.

Take `C[C@](O)(COc1ccc(C#N)cc1)C(=O)Nc1ccc(C#N)c(C(F)(F)F)c1` [Ostarine (MK-2866)]: the cell viability stood at 93.7%. With `CC(=O)O[C@H]1C[C@H](O[C@H]2[C@@H](O)C[C@H](O[C@H]3[C@@H](O)C[C@H](O[C@H]4CC[C@@]5(C)[C@H](CC[C@@H]6[C@@H]5C[C@@H](O)[C@]5(C)[C@@H](C7=CC(=O)OC7)CC[C@]65O)C4)O[C@@H]3C)O[C@@H]2C)O[C@H](C)[C@H]1O[C@@H]1O[C@H](CO)[C@@H](O)[C@H](O)[C@H]1O` the figure was 3.89%. With `CC(=O)Nc1ccc(OC[C@](C)(O)C(=O)Nc2ccc([N+](=O)[O-])c(C(F)(F)F)c2)cc1` [Andarine (GTX-007)] the figure was 90.5%; with `COc1ccc(CCN2CCC(Nc3nc4ccccc4n3Cc3ccc(F)cc3)CC2)cc1`, 95.2%. Consider `O=C1C=C2C(=CCOC2O)O1` (stereo not given), for which the cell viability was found to be 1.61%. With `COc1cc2c(cc1OC)[C@@]13CCN4CC5=CCO[C@H]6CC(=O)N2[C@H]1[C@H]6[C@H]5C[C@H]43` the figure was 104%. With `COC(=O)C1=CCCN(C)C1` the figure was 98.5%. For `C=C(C)[C@H]1Cc2c(ccc3c2O[C@@H]2COc4cc(OC)c(OC)cc4[C@@H]2C3=O)O1` the value was 26.4%; for `O=C(NC(=O)c1c(F)cccc1F)Nc1cc(Cl)c(OC(F)(F)C(F)C(F)(F)F)cc1Cl` (stereo not given), 93.9%; for `COc1cc2c(cc1OC)[C@H](C)NCC2`, 94.2%. As for `COc1ccc(Cc2nccc3cc(OC)c(OC)cc23)cc1OC`, the cell viability is 89%. Take `CCC1(CC)C(=O)C=CNC1=O`: the cell viability was determined as 98.1%. With `C[C@@H]1O[C@@H](O[C@H]2C[C@@H](O)[C@]3(CO)[C@H]4[C@H](O)C[C@]5(C)[C@@H](C6=CC(=O)OC6)CC[C@]5(O)[C@@H]4CC[C@]3(O)C2)[C@H](O)[C@H](O)[C@H]1O` the figure was 1.94%; with `COc1ccc2c3c([nH]c2c1)C(C)=NCC3`, 94.2%. With `NCCc1ccc(O)cc1` the figure was 103%; with `CN(C)C(=O)Oc1cc(OC(=O)N(C)C)cc(C(O)CNC(C)(C)C)c1` (stereo not given), 110%. With `CCn1cc(C(=O)O)c(=O)c2cc3c(cc21)OCO3` the figure was 118%; with `C[C@]12CC[C@H](O)C[C@@H]1CC[C@@H]1[C@@H]2CC[C@]2(C)C(=O)CC[C@@H]12`, 98.7%.

In the case of `C[N+]1(C)[C@@H]2C[C@@H](OC(=O)[C@H](CO)c3ccccc3)C[C@H]1[C@@H]1O[C@@H]12`, the cell viability is 102%.

(Values after the supplement of paper PMC11150407.)
